Tested on: Jurkat cells
Test: Live cell chemical proteomics, LC-MS/MS identification of KY-26-modified sites
Assay type: cell-based, human
Details: live cell treatment 12.5 μM, 2 hr

C#CCNC(=O)c1cc(Nc2cc(C3CC3)[nH]n2)nc(N2CCN(C(=O)c3ccc(S(=O)(=O)n4cnc(-c5ccccc5)n4)cc3)CC2)n1 [KY-26, 6-((5-cyclopropyl-1H-pyrazol-3-yl)amino)-2-(4-(4-((3-phenyl-1H-1,2,4-triazol-1-yl)sulfonyl)benzoyl)piperazin-1-yl)-N-(prop-2-yn-1-yl)pyrimidine-4-carboxamide]
number of probe-modified peptides with assigned KY-26 modification (HCD and ETD, trypsin and chymotrypsin): > 65 | target site assignments of probe-modified peptides, HCD alone (tryptic digests): 35 | target site assignments of probe-modified peptides, HCD/ETD (tryptic digests): 51

— patent US20240400542A1 (University of Virginia Patent Foundation, priority 2021, published 2024)
